{"source": "PubChem BioAssay AID1259415", "about": "(National Center for Advancing Translational Sciences (NCATS), 2018)", "note": "Hit rate of the full screen: of about 410,000 compounds, about 18,000 (4.4%) were called active. The shares of active, inactive and inconclusive entries below differ from those in the screen. Cut-off read from the data, not from the text of the source: active = activity change below about -60%; inconclusive = no clear call, values can overlap the other calls; inactive = above about -39%. % is set by controls: 0 for no effect and ±100 for the full control effect."}
{"test": "qHTS Assay for inhibitors of the human cytomegalovirus (HCMV)", "settings": "HFF cells, HCMV-luciferase reporter, 72 h; at 57.5 µM; active compounds read low", "in_short": "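Screen run at 2 compound doses on HFFs infected with reporter HCMV, MOI 1 PFU/cell. Luciferase activity from cell lysates at 72 h post infection gave inhibition relative to buffer-only and Salinomycin wells.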"}
{"molecule": "Cc1cc(NC(=O)CSc2nc(-c3cccs3)cc(C(F)(F)F)n2)no1", "activity change, negative = inhibition": "inconclusive: -41.7%"}
{"molecule": "Cc1cc2ccccn2c1C(=O)Nc1ccc(Cl)cc1", "activity change, negative = inhibition": "inactive: -19.5%"}
{"molecule": "CC(C)n1c(=S)[nH]c2ccccc2c1=O", "activity change, negative = inhibition": "inconclusive: -41%"}
{"molecule": "O=C(CSCc1ccc(Cl)cc1)N/N=C/c1c(Cl)cccc1Cl", "activity change, negative = inhibition": "inconclusive: -43.4%"}
{"molecule": "Cc1nc(C)c(C(=O)Nc2cccc(F)c2)s1", "activity change, negative = inhibition": "inactive: 31.1%"}
{"molecule": "COc1ccc(NC(=O)C#Cc2ccccc2)cc1", "activity change, negative = inhibition": "inconclusive: -42.7%"}
{"molecule": "CCCCCn1nnc2c(=O)oc3ccccc3c21", "activity change, negative = inhibition": "inconclusive: -51%"}
{"molecule": "CCn1cc(C2=NC(C)CO2)c2ccccc21", "note": "(configuration not stated)", "activity change, negative = inhibition": "inactive: 13.6%"}
{"molecule": "COc1ccc(C(C(=O)NCc2ccccc2)N(Cc2ccc3c(c2)OCO3)C(=O)c2cnccn2)cc1", "note": "(configuration not stated)", "activity change, negative = inhibition": "inconclusive: -54.6%"}
{"molecule": "c1ccc(-c2nc(-n3ccnc3)nc(-n3ccnc3)n2)cc1", "activity change, negative = inhibition": "inconclusive: -53.6%"}
{"molecule": "COC(=O)c1ccccc1S(=O)(=O)N1CCC(C(=O)NCc2ccccn2)CC1", "activity change, negative = inhibition": "inconclusive: -58.9%"}
{"molecule": "COc1ccccc1N1CCN(Cc2cnc3ccc(Cl)cn23)CC1", "activity change, negative = inhibition": "inconclusive: -51.4%"}
{"molecule": "CCC(C)Cn1c(C(C)C)nc2ccccc21", "note": "(configuration not stated)", "activity change, negative = inhibition": "inconclusive: -59.8%"}
{"molecule": "COc1ccc(CN(C(=O)c2nsc(Cl)c2Cl)C(C(=O)NC2CCCC2)c2ccc(C)cc2)cc1", "note": "(configuration not stated)", "activity change, negative = inhibition": "inconclusive: -53%"}
{"molecule": "Cc1ccc(S(=O)(=O)N2CCCCC2CCNC(=O)C(=O)Nc2ccccc2F)cc1", "note": "(configuration not stated)", "activity change, negative = inhibition": "inconclusive: -41.7%"}
{"molecule": "COCc1cc(C)n(CC(=O)Nc2ccc3c(c2)OCO3)c(=O)c1C#N", "activity change, negative = inhibition": "inconclusive: -41.4%"}
{"molecule": "CC(C)CC(N)c1csc(Nc2ncccn2)n1", "note": "(configuration not stated)", "activity change, negative = inhibition": "inactive: -27%"}
{"molecule": "Cc1ccc(C)c(N2CCN(C(=O)c3ccc(CSc4nc5ccncc5[nH]4)cc3)CC2)c1", "activity change, negative = inhibition": "inconclusive: -45.3%"}
{"molecule": "CCOc1cccc(CN2CCN(CCc3ccccc3)C(CCO)C2)c1O", "note": "(configuration not stated)", "activity change, negative = inhibition": "inconclusive: -40.6%"}
{"molecule": "CC(C)(C)NC(=O)Cn1cc(S(=O)(=O)Cc2ccc(F)cc2)c2ccccc21", "activity change, negative = inhibition": "inactive: 0%"}
{"molecule": "Cc1cc(F)cc(-c2cc(C(=O)NCc3ccc(C(F)(F)F)cc3)[nH]n2)c1", "activity change, negative = inhibition": "inconclusive: -44%"}
{"molecule": "CC(=O)Nc1ccc(S(=O)(=O)NC2(C(F)(F)F)NC(=O)N(CC(C)C)C2=O)cc1", "note": "(configuration not stated)", "activity change, negative = inhibition": "inconclusive: -47.8%"}
{"molecule": "CN(C)S(=O)(=O)c1ccc(NC(=O)COC(=O)Cn2[nH]c(=O)c3ccccc3c2=O)cc1", "activity change, negative = inhibition": "inconclusive: -43.5%"}
{"molecule": "CCN(CCN1CCCC1)C(=O)c1cc(COc2ccccc2SC)on1", "activity change, negative = inhibition": "inconclusive: -44.8%"}
{"molecule": "CCn1c(SCC(=O)Nc2ccc(Cl)cc2)nc2nc3c(cc2c1=O)CCCC3", "activity change, negative = inhibition": "inconclusive: -44.1%"}
{"molecule": "CCCN(CCC)CCN1C(=O)C2C(C(=O)Nc3ccc(C)cc3)C3C=CC2(O3)C1C(=O)NC1CCCCC1", "note": "(configuration not stated)", "activity change, negative = inhibition": "inactive: 1.32%"}
{"molecule": "COc1ccc2c(c1)CCc1c(C(=O)Nc3ccc(F)c(Cl)c3)noc1-2", "activity change, negative = inhibition": "inactive: 63.7%"}
{"molecule": "CCOC(=O)c1[nH]c(C)c(C(=O)Nc2ccccc2F)c1C", "activity change, negative = inhibition": "inactive: 14.1%"}
{"molecule": "CCCCOc1ccccc1C1C(C(=O)OC)=CN(CC)C=C1C(=O)OC", "activity change, negative = inhibition": "inconclusive: -41.3%"}
{"molecule": "COc1ccc(CCNC(=O)Nc2ccc([N+](=O)[O-])cc2)cc1OC", "activity change, negative = inhibition": "inconclusive: -47.3%"}
{"molecule": "O=C(CSc1nnc(-c2ccccc2)c(-c2ccccc2)n1)NC1CCCCC1", "activity change, negative = inhibition": "inconclusive: 0%"}
{"molecule": "Cc1ccc(S(=O)(=O)N(CC(=O)N(C)C)c2cccc([N+](=O)[O-])c2)cc1", "activity change, negative = inhibition": "inconclusive: -44.8%"}
{"molecule": "O=C(Nc1ccc(Oc2ccccc2)cc1)C1CC1", "activity change, negative = inhibition": "inconclusive: -50.6%"}
{"molecule": "COc1ccc(/C=N/n2c(N)nc(-c3ccccc3)c2-c2ccccc2)cc1", "activity change, negative = inhibition": "inconclusive: -43.2%"}
{"molecule": "COc1ccc([N+](=O)[O-])cc1NS(=O)(=O)c1ccc(C(=O)N2CCCC2)cc1", "activity change, negative = inhibition": "inconclusive: -44.2%"}
{"molecule": "CCOc1ccc(/C=C(\\C#N)c2nc3ccccc3c(=O)[nH]2)cc1OC", "activity change, negative = inhibition": "inactive: 18%"}
{"molecule": "Cc1ccc(C2OCC(C)([N+](=O)[O-])CO2)cc1", "note": "(configuration not stated)", "activity change, negative = inhibition": "inactive: -2.41%"}
{"molecule": "CCCCc1cc(=O)oc2cc(O)ccc12", "activity change, negative = inhibition": "active: -104%"}
{"molecule": "CN1CCN(NC(=O)c2cn(-c3ccccc3)nc2-c2cccc(Br)c2)CC1", "activity change, negative = inhibition": "inconclusive: -46.9%"}
{"molecule": "O=C(/C=C/c1ccc(F)cc1)N1CC[C@@]2(O)CCCC[C@H]2C1", "activity change, negative = inhibition": "inconclusive: -46.8%"}
{"molecule": "COC(=O)c1ccc(NC(=O)N2CCCC(C(=O)c3ccccc3OC)C2)cc1", "note": "(configuration not stated)", "activity change, negative = inhibition": "inconclusive: -45.2%"}
{"molecule": "C=CCn1c(-c2sccc2C)n[nH]c1=S", "activity change, negative = inhibition": "inconclusive: -44.6%"}
{"molecule": "CCOC(=O)c1cnc(Nc2nc3ccccc3o2)nc1CSC(=S)N(CC)CC", "activity change, negative = inhibition": "active: -64.2%"}
{"molecule": "Cc1ccc(NC(=O)COC(=O)C2CC2C)c(S(=O)(=O)N2CCCCC2)c1", "note": "(configuration not stated)", "activity change, negative = inhibition": "inactive: -1.62%"}
{"molecule": "Cc1ccc(CNC(=O)c2cc3c(s2)-c2ccccc2SC3)cc1", "activity change, negative = inhibition": "inconclusive: -42.8%"}
{"molecule": "CC(=O)c1cccc(NC(=O)CNC(=O)c2cc3ccccc3o2)c1", "activity change, negative = inhibition": "inconclusive: -42.9%"}
{"molecule": "O=C(CSc1nncs1)NC(=O)NCc1ccco1", "activity change, negative = inhibition": "inconclusive: -40.9%"}
{"molecule": "CCOC(=O)N1CCC(n2c(SCC(=O)N3CCC(C)CC3)nc3ccccc3c2=O)CC1", "activity change, negative = inhibition": "inconclusive: -44.4%"}
{"molecule": "N#Cc1cc2c(nc1SCC(=O)Nc1cccc(C(F)(F)F)c1)C1CCN2CC1", "activity change, negative = inhibition": "inconclusive: -55%"}
{"molecule": "CCCCCOc1ccc(NC2=CC(=O)CCC2)cc1", "activity change, negative = inhibition": "inconclusive: -42.7%"}
{"molecule": "CCNc1c(NC(=O)C2CCC(C)CC2)c(=O)oc2ccccc12", "note": "(configuration not stated)", "activity change, negative = inhibition": "inconclusive: -44.5%"}
{"molecule": "Oc1ccc(-c2cnns2)c(O)c1", "activity change, negative = inhibition": "inconclusive: -43.6%"}
{"molecule": "Cc1cc(C)c(C#N)c(N2CCN(Cc3ccccc3)CC2)n1", "activity change, negative = inhibition": "inconclusive: -42.1%"}
{"molecule": "CCCCCCCNC(=O)COc1ccc2c(c1)C(=O)CC(C)(C)O2", "activity change, negative = inhibition": "inactive: -6%"}
{"molecule": "CC12CN(NC(=O)c3ccccc3F)C3(C#N)CC1CCC23C", "note": "(configuration not stated)", "activity change, negative = inhibition": "active: -74.8%"}
{"molecule": "CC(C)(C)N1C(=O)[C@H]2[C@@H](c3ccc(Br)cc3)N3C(=O)N(c4cccc(F)c4)C(=O)[C@@]3(C)[C@H]2C1=O", "activity change, negative = inhibition": "inactive: -7.64%"}
{"molecule": "N#Cc1c(N)c(C#N)c(-c2ccc3c(c2)OCO3)c2c1CCCC2", "activity change, negative = inhibition": "inconclusive: -43%"}
